Results are given in words; binding and its absence hold for the method and conditions named. Some binding calls cover weakened binding; strength is not graded here.
Molecular target: plasma membrane mannose-6-phosphate receptor of human Tay-Sachs fibroblasts (human) (UniProt P11717)
Experiment: uptake from conditioned media by TSD fibroblasts, with or without 5 mM mannose-6-phosphate; read as intracellular MUGS activity

Amino acid sequences for entries named in this document (tags omitted). Residues count along the entry.
UniProt P11717, residues 41-2491: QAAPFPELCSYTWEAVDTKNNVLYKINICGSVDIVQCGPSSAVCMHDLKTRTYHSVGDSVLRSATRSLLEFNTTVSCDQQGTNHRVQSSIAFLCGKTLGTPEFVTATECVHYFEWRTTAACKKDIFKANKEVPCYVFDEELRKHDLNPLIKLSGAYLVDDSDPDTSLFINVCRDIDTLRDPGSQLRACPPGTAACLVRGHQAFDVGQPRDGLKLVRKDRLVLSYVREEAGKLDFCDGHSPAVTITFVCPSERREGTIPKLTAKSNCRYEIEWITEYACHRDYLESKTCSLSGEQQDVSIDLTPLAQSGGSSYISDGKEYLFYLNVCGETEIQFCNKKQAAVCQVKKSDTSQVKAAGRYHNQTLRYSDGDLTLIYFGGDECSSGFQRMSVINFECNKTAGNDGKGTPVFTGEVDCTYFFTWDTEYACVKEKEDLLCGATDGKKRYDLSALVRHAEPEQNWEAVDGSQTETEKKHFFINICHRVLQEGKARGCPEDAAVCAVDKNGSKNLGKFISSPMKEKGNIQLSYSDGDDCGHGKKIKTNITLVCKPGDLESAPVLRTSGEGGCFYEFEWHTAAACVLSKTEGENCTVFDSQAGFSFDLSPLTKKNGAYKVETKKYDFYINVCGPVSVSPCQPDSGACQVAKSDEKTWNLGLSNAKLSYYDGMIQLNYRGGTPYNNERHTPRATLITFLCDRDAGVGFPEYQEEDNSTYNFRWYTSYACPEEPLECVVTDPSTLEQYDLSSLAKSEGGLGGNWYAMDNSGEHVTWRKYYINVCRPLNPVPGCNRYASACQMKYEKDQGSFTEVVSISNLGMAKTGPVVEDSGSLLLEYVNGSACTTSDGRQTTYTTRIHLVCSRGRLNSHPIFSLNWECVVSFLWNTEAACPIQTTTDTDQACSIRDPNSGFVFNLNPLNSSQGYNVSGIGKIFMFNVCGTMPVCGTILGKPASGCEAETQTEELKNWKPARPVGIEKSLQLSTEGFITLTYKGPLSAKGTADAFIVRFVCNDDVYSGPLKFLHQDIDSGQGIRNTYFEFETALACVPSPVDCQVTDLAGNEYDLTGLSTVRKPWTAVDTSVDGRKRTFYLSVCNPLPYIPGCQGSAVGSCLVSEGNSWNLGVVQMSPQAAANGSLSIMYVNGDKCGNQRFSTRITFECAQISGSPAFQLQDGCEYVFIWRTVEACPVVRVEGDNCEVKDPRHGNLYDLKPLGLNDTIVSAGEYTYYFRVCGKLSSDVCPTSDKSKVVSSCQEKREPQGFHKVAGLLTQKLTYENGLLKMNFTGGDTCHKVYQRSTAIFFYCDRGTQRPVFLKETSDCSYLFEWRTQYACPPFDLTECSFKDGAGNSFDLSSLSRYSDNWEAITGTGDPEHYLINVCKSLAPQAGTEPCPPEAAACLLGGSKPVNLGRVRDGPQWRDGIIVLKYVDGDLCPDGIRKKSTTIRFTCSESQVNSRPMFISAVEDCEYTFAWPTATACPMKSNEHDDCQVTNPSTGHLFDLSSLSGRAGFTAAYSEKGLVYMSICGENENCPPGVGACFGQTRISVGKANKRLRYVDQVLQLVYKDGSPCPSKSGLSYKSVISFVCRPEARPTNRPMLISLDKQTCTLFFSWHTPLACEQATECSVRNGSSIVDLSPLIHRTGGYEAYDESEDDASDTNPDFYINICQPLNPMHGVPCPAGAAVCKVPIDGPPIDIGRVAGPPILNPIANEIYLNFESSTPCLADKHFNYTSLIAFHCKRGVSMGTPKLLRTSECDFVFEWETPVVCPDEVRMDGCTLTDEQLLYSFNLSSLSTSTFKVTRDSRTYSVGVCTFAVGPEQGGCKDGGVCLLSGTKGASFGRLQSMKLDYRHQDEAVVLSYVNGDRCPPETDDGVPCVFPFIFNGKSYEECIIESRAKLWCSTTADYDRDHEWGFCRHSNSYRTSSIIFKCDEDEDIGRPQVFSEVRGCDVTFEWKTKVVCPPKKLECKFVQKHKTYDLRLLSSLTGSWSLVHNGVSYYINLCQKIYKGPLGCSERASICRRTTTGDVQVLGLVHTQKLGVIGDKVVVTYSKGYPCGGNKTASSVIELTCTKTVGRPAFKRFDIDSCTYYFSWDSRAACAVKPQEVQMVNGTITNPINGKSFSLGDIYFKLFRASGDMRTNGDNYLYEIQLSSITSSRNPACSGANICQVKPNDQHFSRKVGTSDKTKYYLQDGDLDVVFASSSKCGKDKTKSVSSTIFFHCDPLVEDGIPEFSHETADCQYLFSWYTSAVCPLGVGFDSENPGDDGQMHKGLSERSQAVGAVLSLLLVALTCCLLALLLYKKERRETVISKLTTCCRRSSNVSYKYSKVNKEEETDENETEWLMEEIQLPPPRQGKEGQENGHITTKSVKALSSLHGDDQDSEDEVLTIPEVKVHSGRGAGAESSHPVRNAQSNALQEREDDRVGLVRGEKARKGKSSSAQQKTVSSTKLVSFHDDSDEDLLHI

B1: secreted variant β-hexosaminidase protein in conditioned media (enzyme)
chain: LWPWPQNFQTSDQRYVLYPNNFQFQYDVSSAAQPGCSVLDEAFQRYRDLLFGSGSWPRPYLTGKRHTLEKNVLVVSVVTPGCNQLPTLESVENYTLTINDDQCLLLSETVWGALRGLETFSQLVWKSAEGTFFINKTEIEDFPRFPHRGLLLDTSRHYLPLKSILDTLDVMAYNKLNVFHWHLVDDQSFPYESFTFPELMRKGSYSLSHIYTAQDVKEVIEYARLRGIRVLAEFDTPGHTLSWGPGIPGLLTPCYSGSEPSGTFGPVNPSLNNTYEFMSTFFLEVSSVFPDFYLHLGGDEVDFTCWKSNPEIQDFMRKKGFGEDFKQLESFYIQTLLDIVSSYGKGYVVWQEVFDNKVKIQPDTIIQVWREDIPVNYMKELELVTKAGFRALLSAPWYLNRISYGQDWRKFYKVEPLAFEGTPEQKALVIGGEACMWGEYVDATNLVPRLWPRAGAVAERLWSNKLTRDMDDAYDRLSHFRCELVRRGVAAQPLYAGYCNQEFEQT
modifications: mannose-6-phosphate on Asn-linked oligosaccharides
binding: binds

From patent publication US20150258180A1 (UNIVERSITY OF MANITOBA, published 2015)
